Measurements: PubChem BioAssay AID2417 (National Center for Advancing Translational Sciences (NCATS), 2010)
About 4,300 (3.1%) of roughly 140,000 compounds were called active. This list was built around the results that the source calls inconclusive (neither active nor inactive); the mix of calls is not that of the screen.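 How the source made its calls: active means readout at or below -70, meaning at least 70% loss of cells showing the perinucleolar compartment, a nuclear body marking cancer cells; inconclusive means readout between -30 and a set limit; inactive means the rest.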

Assay: High Content Assay for Compounds that inhibit the Assembly of the Perinucleolar Compartment;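 further: plate controls were DMSO wells for no effect and camptothecin positive control wells for full effect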
Conditions: PC3M PTB-GFP, PNC prevalence imaging, 16 h; at 10 µM; stronger effect = lower value
Summary of the method: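 Compounds are pinned in duplicate onto adhered PC3M cells stably expressing GFP-tagged PTB and incubated 16 h at 37 C. Cells are then fixed, nuclei stained with Hoechst, and PNC-positive cells counted.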

Structure (SMILES) | activity change (PNC), negative = inhibition
Cc1ccccc1-c1nnc(-c2ccc(Br)cc2)o1 | inconclusive: -48.3%
CC1Cc2ccccc2N1C(=O)c1cnc2sccn2c1=O (stereo not given) | inconclusive: -41%
CCOC(=O)C1CCCN(C(=O)c2cnn3c(C(F)F)cc(-c4ccc(C)cc4)nc23)C1 (stereo not given) | active: -107%
COc1ccccc1NC(=O)Nc1nnc(C(C)C)s1 | inconclusive: -45.5%
CCCCn1c(/N=C/c2ccccc2NS(=O)(=O)c2ccc(C)cc2)nc2ccccc21 | inconclusive: -32.8%
COc1ccc(S(=O)(=O)Nc2c3ccccc3nc(=O)n2-c2ccccc2)cc1 | inconclusive: -68.2%
CN(C)CCCN(C(=O)CCc1ccccc1)c1nc2c(F)cccc2s1 | inconclusive: -44.6%
O=C(NCCC1=CCCCC1)C1CCN(S(=O)(=O)c2ccc(Br)s2)CC1 | inconclusive: -56.1%
O=C(NCCc1c[nH]c2ccccc12)Nc1cccc2ccccc12 | inconclusive: -55.8%
O=C(C[n+]1ccc(-c2nnc3n2CCC3)cc1)c1ccc(Cl)cc1 | inconclusive: -49.4%
Cc1ccc(NCCC(=O)c2ccc(Cl)c(Cl)c2)cc1 | inactive: 74.5%
O=C(Nc1nc(-c2ccc(-c3ccccc3)cc2)cs1)c1cnccn1 | inconclusive: -60.4%
COc1ccc2[nH]c(=O)c(C(c3nnnn3C3CCCCC3)N3CCN(C)CC3)cc2c1 (stereo not given) | inactive: -26.5%
CC(=NCC1CCCO1)C1=C(O)CC(C)(C)CC1=O (stereo not given) | inconclusive: -30.6%
CCn1c(-c2ccc(F)cc2)cnc1SCC(=O)N1CCCCC1C (stereo not given) | inactive: 13.3%
CCOC(=O)c1ccccc1NC(=O)c1ccc(N(C)S(C)(=O)=O)cc1 | inconclusive: -38.8%
COC(=O)c1cccc(-n2nnnc2SCC(=O)Nc2nc3c(s2)CCCC3)c1 | inactive: 26.1%
O=C(Nc1ccc2c(c1)C(=O)N(c1ccccc1)C2=O)C1CCCO1 (stereo not given) | inactive: -20.3%
COc1ccc(N2C3=C(CC4=C2CCCC4=O)C(=O)CCC3)cc1 | inactive: 25.6%
CCOC(=O)N1CCN(C(=O)COc2cccc3c2CCN(Cc2ccccc2F)C3=O)CC1 | inconclusive: -42.6%
CC(C)(C)C(=O)n1nc(-c2ccccc2)oc1=O | active: -109%
CCCCOc1ccc(C(=O)N2CCCC2C(=O)O)cc1 (stereo not given) | active: -100%
COC(=O)CSc1nnc(CNc2ccc(Cl)cc2)n1-c1ccccc1 | inactive: -24%
CCn1c(=O)cc(SCC(=O)N2CCCCC2)c2ccccc21 | inactive: -10.9%
CCc1c(C)nc(N2CCN(Cc3ccccc3)CC2)[nH]c1=O | inconclusive: -55.7%

Some of the entries above in another layout:
Structure (SMILES),"activity change (PNC), negative = inhibition"
COC(=O)c1cccc(-n2nnnc2SCC(=O)Nc2nc3c(s2)CCCC3)c1,inactive: 26.1%
O=C(Nc1ccc2c(c1)C(=O)N(c1ccccc1)C2=O)C1CCCO1 (stereo not given),inactive: -20.3%
